Test results from patent US4740501A (priority 1985, dated 1988).
“And” between values parts separate entries of the source, which are not always exact repeats. Identical values can stand only once. Some results come without the dose or concentration used.

System: MMTV polypeptides
Type: cell-based, mouse

In the case of `CCOC(=O)[C@H](CCSC)NC(=O)[C@H](Cc1cccc(N(CCCl)CCCl)c1)NC(=O)[C@@H](N)Cc1ccc(F)cc1.Cl` [PTT.119, 3-(p-fluorophenyl)-L-alanyl-3-[m-bis(2-chloroethyl)aminophenyl]-L-alanyl-L-methionine ethyl ester hydrochloride], the “Percentage of Radioactivity Associated with each Polypeptide: p 8” value is reported as 3.8, the “relative levels of the other MMTV polypeptides” value is reported as “not affected” and the “Percentage of Radioactivity Associated with each Polypeptide: gp 37.7/33” value (hydrochloride) is reported as 22.0 and 18.6. For the same compound, the “Percentage of Radioactivity Associated with each Polypeptide: p 17” value (hydrochloride) was 6.9 and 5.4.
